PubChem BioAssay AID1259254, NCATS, 2017
In all, the deposit lists about 59,000 reagents; this is a random part of them. About 1,550 of them (2.6%) count as active. 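G2 share is only a proxy for re-replication; each gene was hit by three separate siRNAs, and active genes were retested.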 The raw values are shown without normalisation. The numbers tell different reagents against one gene apart. The record does not give: the amount of reagent.

- Purpose: 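Finding genes that stop cells copying their DNA twice in one cycle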 (primary screen)
- Cell system: human HCT116 colorectal cancer cells
- Knock-down reagent: single siRNA against human genes
- Time to read-out: 3 days
- Detection: 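Imaged Hoechst DNA stain sorts each cell into a cycle phase by DNA amount; per plate, G2 fraction set to 0% for non-targeting and 100% for GMNN siRNA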
- Scale: G2 robust z-score and G2 cells, % of GMNN control: higher = more G2 cells, more excess DNA replication; raw share of cells in G2: higher = larger share of cells with G2 DNA content
- Call rule: 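An siRNA counts as active if its G2 robust z-score lies at least 5 MADs above the screen median; here such calls match roughly 38% of GMNN control or more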

no.	target	reagent	G2 robust z-score	G2 cells, % of GMNN control	raw share of cells in G2 (%)	activity call
1	ALKBH8	1	2.24	18.7	13	inactive
2	ALKBH8	2	0.183	4.25	7.65	inactive
3	ALKBH8	3	-0.117	2.14	5.29	inactive
4	RBM10	1	0.827	8.78	8.53	inactive
5	RBM10	2	0.906	9.34	8.05	inactive
6	RBM10	3	-0.527	-0.743	5	inactive
7	LYL1	1	-0.234	1.32	3.63	inactive
8	LYL1	2	1.35	12.4	10.4	inactive
9	LYL1	3	1.25	11.7	9.9	inactive
10	SMIM48	1	2.46	20.3	11.2	inactive
11	SMIM48	2	3.36	26.6	12.3	inactive
12	SMIM48	3	-0.713	-2.05	2.82	inactive
13	DNAH7	1	-1.08	-4.65	4.39	inactive
14	DNAH7	2	-0.41	0.0819	4.47	inactive
15	DNAH7	3	-0.882	-3.24	2.98	inactive
16	RPS28P3	1	0.0221	3.12	4.83	inactive
17	RPS28P3	2	0.146	4	4.71	inactive
18	RPS28P3	3	-0.875	-3.19	2.22	inactive
19	MBD2	1	-1.21	-5.53	3.32	inactive
20	MBD2	2	0.316	5.19	6.57	inactive
21	MBD2	3	-0.272	1.05	5.02	inactive
22	CHRFAM7A	1	-0.292	0.91	5.62	inactive
23	CHRFAM7A	2	2.37	19.6	11.4	inactive
24	CHRFAM7A	3	-0.35	0.504	4.57	inactive
25	GALR2	1	-0.178	1.71	5.57	inactive
26	GALR2	2	2.05	17.4	11.3	inactive
27	GALR2	3	6.31	47.3	19.9	active
28	PTPN23	1	-0.653	-1.63	4.27	inactive
29	PTPN23	2	3.61	28.4	12.8	inactive
30	PTPN23	3	0.313	5.17	5.05	inactive
31	SOS2	1	-0.35	0.503	4.12	inactive
32	SOS2	2	-0.171	1.76	6.27	inactive
33	SOS2	3	1.87	16.1	10.1	inactive
34	FGF11	1	0.014	3.07	6.74	inactive
35	FGF11	2	0.166	4.13	5.6	inactive
36	FGF11	3	-0.919	-3.5	2.15	inactive
37	OR2M2	1	-0.056	2.57	5.86	inactive
38	OR2M2	2	2.92	23.5	12.4	inactive
39	OR2M2	3	0.587	7.1	6.33	inactive
40	MCUR1	1	-0.759	-2.37	3.55	inactive
41	MCUR1	2	0.326	5.26	6.97	inactive
42	MCUR1	3	0.361	5.51	4.15	inactive
43	LOC727925 (retired record)	1	-1.1	-4.8	1.78	inactive
44	LOC727925 (retired record)	2	0.0481	3.31	4.8	inactive
45	LOC727925 (retired record)	3	-0.579	-1.1	2.48	inactive
46	SCIMP	1	0.202	4.39	6.51	inactive
47	SCIMP	2	1.62	14.4	8.7	inactive
48	SCIMP	3	-0.443	-0.146	3.34	inactive

Ordered by “G2 robust z-score” (descending): some entries from above.
target	reagent	G2 robust z-score	G2 cells, % of GMNN control	raw share of cells in G2 (%)	activity call
SCIMP	2	1.62	14.4	8.7	inactive
MCUR1	3	0.361	5.51	4.15	inactive
SCIMP	1	0.202	4.39	6.51	inactive
LOC727925 (retired record)	2	0.0481	3.31	4.8	inactive
SCIMP	3	-0.443	-0.146	3.34	inactive
LOC727925 (retired record)	3	-0.579	-1.1	2.48	inactive
LOC727925 (retired record)	1	-1.1	-4.8	1.78	inactive
